# Structures can show the parent of a compound that is named as a salt. Some of the results follow. Repeats in this data set agree poorly, so a single value says little.
# Test system: Brugia pahangi adult female
# Test: motility inhibition on day 3 relative to DMSO vehicle; higher = more active
# Conditions: 10 µM; 3 days
row,SMILES,motility inhibition on day 3
1,CN(C)CCOC(c1ccccc1)c1ccc(Br)cc1 (stereo not drawn) [Bromazine Hydrochloride],28.8%
2,CCN(CC)CCOC(=O)c1ccc(N)cc1 [procaine hydrochloride],< 0%
3,OCCN1CCN(CC/C=C2\c3ccccc3Sc3ccc(Cl)cc32)CC1 [Zuclopenthixol Succinate Salt],27.4%
4,CC(C)CCCC(C)N (stereo not drawn) [octodrine],4.89%
5,CC(=O)O[C@H]1C[C@@]2(C)[C@@H](C[C@@H](O)[C@H]3[C@@]4(C)CC[C@@H](O)[C@@H](C)[C@@H]4CC[C@@]32C)/C1=C(\CCC=C(C)C)C(=O)O [fusidic acid],29.6%
6,CC(=O)N[C@@H](CS)C(=O)O [acetylcysteine],11.5%
7,NC(=O)OCC(COC(N)=O)c1ccccc1 [felbamate],21.3%
8,Cc1ccnc(NS(=O)(=O)c2ccc(N)cc2)n1 [sulfamerazine],19.1%
9,COc1ccc(C[C@H](N)C(=O)N[C@H]2[C@@H](O)[C@H](n3cnc4c(N(C)C)ncnc43)O[C@@H]2CO)cc1 [puromycin hydrochloride],16.7%
10,CCCCC/C=C/CCC(=O)N[C@H]1[C@H](Oc2c3cc4cc2Oc2ccc(cc2Cl)[C@@H](O[C@@H]2O[C@H](CO)[C@@H](O)[C@H](O)[C@H]2NC(C)=O)[C@@H]2NC(=O)[C@H](NC(=O)[C@@H]4NC(=O)[C@H]4NC(=O)C(Cc5ccc(c(Cl)c5)O3)NC(=O)[C@H](N)c3ccc(O)c(c3)Oc3cc(O)cc4c3)c3ccc(O)c(c3)-c3c(OC4O[C@H](CO)[C@@H](O)[C@H](O)[C@@H]4O)cc(O)cc3[C@@H](C(=O)O)NC2=O)O[C@H](CO)[C@@H](O)[C@@H]1O (stereo partly drawn) [teicoplanin [a(2-1) shown]],< 0%
11,[O-][n+]1cccc(CO)c1 [mepiroxol],2.38%
12,CNC[C@H](O)[C@@H](O)[C@H](O)[C@H](O)CO [meglumine],2.78%
13,Nc1ccc(S(=O)(=O)Nc2cnc3ccccc3n2)cc1 [sulfaquinoxaline sodium],1.48%
14,NCCCC(O)(P(=O)(O)O)P(=O)(O)O [alendronate sodium],9.25%
15,COC(=O)N[C@H](C(=O)N[C@@H](Cc1ccccc1)[C@@H](O)CN(Cc1ccc(-c2ccccn2)cc1)NC(=O)[C@@H](NC(=O)OC)C(C)(C)C)C(C)(C)C [Atazanavir],14%
16,CCCCNc1cc(C(=O)O)cc(S(N)(=O)=O)c1Oc1ccccc1 [bumetanide],17.2%
17,C[C@H](Cn1cnc2c(N)ncnc21)OCP(=O)(O)O [tenofovir],47.4%
18,CC1(C)S[C@@H]2[C@H](N3C(=O)C(c4ccccc4)NC3(C)C)C(=O)N2[C@H]1C(=O)O (stereo partly drawn),1.8%

# Some values from the results shown:
# For motility inhibition on day 3, CN(C)CCOC(c1ccccc1)c1ccc(Br)cc1 (stereo not drawn) [Bromazine Hydrochloride] reads 28.8%
# For motility inhibition on day 3, NCCCC(O)(P(=O)(O)O)P(=O)(O)O [alendronate sodium] reads 9.25%
